Results deposited as PubChem BioAssay AID1259405 (NCATS, 2018)

Test: 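Knock-downs that lift recombinant protein yield in hamster ovary cells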 (primary screen)
System: Chinese hamster CHO-K1 ovary cells with stable secreted eGFP expression
Reagent: single siRNA against mouse genes, 0.8 pmol siRNA per well (2 µl of 400 nM stock)
Duration: 3 days
Detection: 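Per-well intracellular GFP measured by laser scanning cytometry, plus viability from ATP luminescence, each relative to plate median of non-targeting control wells, in %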
Scale: GFP, % of control: higher = more GFP per well, higher productivity; viability (ATP), % of control: higher = more viable cells (more ATP)
Hit rule: 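Called active when intracellular GFP, relative to negative control, is at or above 120%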
The whole screen tested about 50,000 reagents; shown is a part drawn at random. Over the whole deposit, about 4,000 (8%) got an active call. 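Mouse siRNA library applied to hamster cells; one well for each siRNA.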 The numbers tell different reagents against one gene apart.

| GFP, % of control | viability (ATP), % of control | call | gene | reagent no. |
| --- | --- | --- | --- | --- |
| 85.4 | 77 | inactive | Izumo4 (IZUMO family member 4) | 1 |
| 47.6 | 64.9 | inactive | Izumo4 (IZUMO family member 4) | 2 |
| 84.4 | 88 | inactive | Izumo4 (IZUMO family member 4) | 3 |
| 54.2 | 65.8 | inactive | Cnmd (chondromodulin) | 1 |
| 50.6 | 91.9 | inactive | Cnmd (chondromodulin) | 2 |
| 81.8 | 91.2 | inactive | Cnmd (chondromodulin) | 3 |
| 77.5 | 72.6 | inactive | Rgs4 (regulator of G-protein signaling 4) | 1 |
| 63.2 | 47.4 | inactive | Rgs4 (regulator of G-protein signaling 4) | 2 |
| 71.2 | 59.9 | inactive | Rgs4 (regulator of G-protein signaling 4) | 3 |
| 63.4 | 62.8 | inactive | Zfp768 (zinc finger protein 768) | 1 |
| 63.2 | 67.6 | inactive | Zfp768 (zinc finger protein 768) | 2 |
| 70.2 | 88.7 | inactive | Zfp768 (zinc finger protein 768) | 3 |
| 74 | 42.7 | inactive | C1qc (complement component 1, q subcomponent, C chain) | 1 |
| 106 | 71.6 | inactive | C1qc (complement component 1, q subcomponent, C chain) | 2 |
| 66.4 | 50.7 | inactive | C1qc (complement component 1, q subcomponent, C chain) | 3 |
| 82.4 | 71.5 | inactive | Fmc1 (formation of mitochondrial complex V assembly factor 1) | 1 |
| 105 | 103 | inactive | Fmc1 (formation of mitochondrial complex V assembly factor 1) | 2 |
| 114 | 111 | inactive | Fmc1 (formation of mitochondrial complex V assembly factor 1) | 3 |
| 148 | 84.8 | active | Gstm1 (glutathione S-transferase, mu 1) | 1 |
| 196 | 142 | active | Gstm1 (glutathione S-transferase, mu 1) | 2 |
| 123 | 96.8 | active | Gstm1 (glutathione S-transferase, mu 1) | 3 |
| 112 | 51.9 | inactive | Rnf38 (ring finger protein 38) | 1 |
| 132 | 68.7 | active | Rnf38 (ring finger protein 38) | 2 |
| 51.8 | 61.5 | inactive | Rnf38 (ring finger protein 38) | 3 |
| 44.4 | 78.4 | inactive | Mtus1 (mitochondrial tumor suppressor 1) | 1 |
| 77.4 | 87.3 | inactive | Mtus1 (mitochondrial tumor suppressor 1) | 2 |
| 82 | 71.1 | inactive | Mtus1 (mitochondrial tumor suppressor 1) | 3 |
| 100 | 71 | inactive | Scgb1b27 (secretoglobin, family 1B, member 27) | 1 |
| 55.8 | 49 | inactive | Scgb1b27 (secretoglobin, family 1B, member 27) | 2 |
| 103 | 96.9 | inactive | Scgb1b27 (secretoglobin, family 1B, member 27) | 3 |
| 33.2 | 45.4 | inactive | Eif2b4 (eukaryotic translation initiation factor 2B, subunit 4 delta) | 1 |
| 69.9 | 61.7 | inactive | Eif2b4 (eukaryotic translation initiation factor 2B, subunit 4 delta) | 2 |
| 58.2 | 49.7 | inactive | Eif2b4 (eukaryotic translation initiation factor 2B, subunit 4 delta) | 3 |
| 43.8 | 40.5 | inactive | Ccz1 (CCZ1 vacuolar protein trafficking and biogenesis associated) | 1 |
| 92.2 | 91.9 | inactive | Ccz1 (CCZ1 vacuolar protein trafficking and biogenesis associated) | 2 |
| 95.3 | 76.7 | inactive | Ccz1 (CCZ1 vacuolar protein trafficking and biogenesis associated) | 3 |
| 43.9 | 35.6 | inactive | Cc2d1b (coiled-coil and C2 domain containing 1B) | 1 |
| 15.4 | 14.8 | inactive | Cc2d1b (coiled-coil and C2 domain containing 1B) | 2 |
| 91.6 | 75.3 | inactive | Cc2d1b (coiled-coil and C2 domain containing 1B) | 3 |
| 8.26 | 59 | inactive | Ing1 (inhibitor of growth family, member 1) | 1 |
| 50.5 | 73.7 | inactive | Ing1 (inhibitor of growth family, member 1) | 2 |
| 84.2 | 96.1 | inactive | Ing1 (inhibitor of growth family, member 1) | 3 |
| 99.7 | 74 | inactive | Or5t17 (olfactory receptor family 5 subfamily T member 17) | 1 |
| 66.5 | 81 | inactive | Or5t17 (olfactory receptor family 5 subfamily T member 17) | 2 |
| 60.6 | 94.2 | inactive | Or5t17 (olfactory receptor family 5 subfamily T member 17) | 3 |
| 114 | 128 | inactive | Polr3b (polymerase (RNA) III (DNA directed) polypeptide B) | 1 |
| 61.8 | 69.9 | inactive | Polr3b (polymerase (RNA) III (DNA directed) polypeptide B) | 2 |
| 124 | 119 | active | Usp33 (ubiquitin specific peptidase 33) | 1 |
| 35.6 | 46.5 | inactive | Usp33 (ubiquitin specific peptidase 33) | 2 |
| 36.7 | 73.4 | inactive | Usp33 (ubiquitin specific peptidase 33) | 3 |
| 85.1 | 39.7 | inactive | Fblim1 (filamin binding LIM protein 1) | 1 |
| 28.3 | 42.2 | inactive | Fblim1 (filamin binding LIM protein 1) | 2 |
| 99.9 | 91.5 | inactive | Fblim1 (filamin binding LIM protein 1) | 3 |
| 94.1 | 65.7 | inactive | Vmn1r185 (vomeronasal 1 receptor 185) | 1 |
| 93.6 | 98 | inactive | Vmn1r185 (vomeronasal 1 receptor 185) | 2 |
| 54.7 | 85.6 | inactive | Vmn1r185 (vomeronasal 1 receptor 185) | 3 |

The list goes on (14 carried over from the part before).
| GFP, % of control | viability (ATP), % of control | call | gene | reagent no. |
| --- | --- | --- | --- | --- |
| 99.7 | 74 | inactive | Or5t17 (olfactory receptor family 5 subfamily T member 17) | 1 |
| 66.5 | 81 | inactive | Or5t17 (olfactory receptor family 5 subfamily T member 17) | 2 |
| 60.6 | 94.2 | inactive | Or5t17 (olfactory receptor family 5 subfamily T member 17) | 3 |
| 114 | 128 | inactive | Polr3b (polymerase (RNA) III (DNA directed) polypeptide B) | 1 |
| 61.8 | 69.9 | inactive | Polr3b (polymerase (RNA) III (DNA directed) polypeptide B) | 2 |
| 124 | 119 | active | Usp33 (ubiquitin specific peptidase 33) | 1 |
| 35.6 | 46.5 | inactive | Usp33 (ubiquitin specific peptidase 33) | 2 |
| 36.7 | 73.4 | inactive | Usp33 (ubiquitin specific peptidase 33) | 3 |
| 85.1 | 39.7 | inactive | Fblim1 (filamin binding LIM protein 1) | 1 |
| 28.3 | 42.2 | inactive | Fblim1 (filamin binding LIM protein 1) | 2 |
| 99.9 | 91.5 | inactive | Fblim1 (filamin binding LIM protein 1) | 3 |
| 94.1 | 65.7 | inactive | Vmn1r185 (vomeronasal 1 receptor 185) | 1 |
| 93.6 | 98 | inactive | Vmn1r185 (vomeronasal 1 receptor 185) | 2 |
| 54.7 | 85.6 | inactive | Vmn1r185 (vomeronasal 1 receptor 185) | 3 |
| 78.5 | 72 | inactive | Klf6 (Kruppel-like transcription factor 6) | 1 |
| 62.7 | 55.4 | inactive | Klf6 (Kruppel-like transcription factor 6) | 2 |
| 99.1 | 101 | inactive | Klf6 (Kruppel-like transcription factor 6) | 3 |
| 60.8 | 121 | inactive | Col9a3 (collagen, type IX, alpha 3) | 1 |
| 87.7 | 90.9 | inactive | Col9a3 (collagen, type IX, alpha 3) | 2 |
| 99.2 | 92 | inactive | Actr3 (ARP3 actin-related protein 3) | 1 |
| 69.7 | 54.1 | inactive | Actr3 (ARP3 actin-related protein 3) | 2 |
| 248 | 110 | active | Ms4a1 (membrane-spanning 4-domains, subfamily A, member 1) | 1 |
| 84.3 | 75.9 | inactive | Ms4a1 (membrane-spanning 4-domains, subfamily A, member 1) | 2 |
| 56.6 | 74.9 | inactive | Ms4a1 (membrane-spanning 4-domains, subfamily A, member 1) | 3 |
| 118 | 92.3 | inactive | Ms4a1 (membrane-spanning 4-domains, subfamily A, member 1) | 4 |
| 70.1 | 75.1 | inactive | Ms4a1 (membrane-spanning 4-domains, subfamily A, member 1) | 5 |
| 124 | 85.3 | active | Ms4a1 (membrane-spanning 4-domains, subfamily A, member 1) | 6 |
| 94.1 | 62.5 | inactive | Slc7a10 | 1 |
| 101 | 78.8 | inactive | Slc7a10 | 2 |
| 102 | 78.2 | inactive | Slc7a10 | 3 |
| 83.3 | 81.8 | inactive | Hgsnat (heparan-alpha-glucosaminide N-acetyltransferase) | 1 |
| 62.1 | 83.6 | inactive | Hgsnat (heparan-alpha-glucosaminide N-acetyltransferase) | 2 |
| 43.9 | 56.6 | inactive | Hgsnat (heparan-alpha-glucosaminide N-acetyltransferase) | 3 |
| 40.6 | 36 | inactive | Ccdc106 (coiled-coil domain containing 106) | 1 |
| 75 | 101 | inactive | Ccdc106 (coiled-coil domain containing 106) | 2 |
| 88.1 | 131 | inactive | Ccdc106 (coiled-coil domain containing 106) | 3 |
| 84.5 | 87.1 | inactive | Ing4 (inhibitor of growth family, member 4) | 1 |
| 53.5 | 42 | inactive | Ing4 (inhibitor of growth family, member 4) | 2 |
| 81.5 | 82.1 | inactive | Dusp10 (dual specificity phosphatase 10) | 1 |
| 94.9 | 90.8 | inactive | Dusp10 (dual specificity phosphatase 10) | 2 |
| 41.4 | 46.3 | inactive | Pglyrp2 (peptidoglycan recognition protein 2) | 1 |
| 142 | 101 | active | Pglyrp2 (peptidoglycan recognition protein 2) | 2 |
| 64.5 | 82.5 | inactive | Lamp2 (lysosomal-associated membrane protein 2) | 1 |
| 65.1 | 65.8 | inactive | Lamp2 (lysosomal-associated membrane protein 2) | 2 |
| 132 | 98.5 | active | Lamp2 (lysosomal-associated membrane protein 2) | 3 |
| 118 | 81.7 | inactive | Pbdc1 (polysaccharide biosynthesis domain containing 1) | 1 |
| 35.1 | 36.9 | inactive | Pbdc1 (polysaccharide biosynthesis domain containing 1) | 2 |
| 88.7 | 101 | inactive | Pbdc1 (polysaccharide biosynthesis domain containing 1) | 3 |
| 96.4 | 70.3 | inactive | Slfn1 (schlafen 1) | 1 |
| 88.8 | 66.1 | inactive | Slfn1 (schlafen 1) | 2 |
| 55.3 | 55.4 | inactive | Slfn1 (schlafen 1) | 3 |
| 59 | 68 | inactive | Erbin (Erbb2 interacting protein) | 1 |
| 42.7 | 43.1 | inactive | Erbin (Erbb2 interacting protein) | 2 |
| 72.4 | 82.2 | inactive | Erbin (Erbb2 interacting protein) | 3 |
| 57.2 | 87.7 | inactive | Fam216a (family with sequence similarity 216, member A) | 1 |
| 79.2 | 59.4 | inactive | Fam216a (family with sequence similarity 216, member A) | 2 |
| 76 | 83.9 | inactive | Fam216a (family with sequence similarity 216, member A) | 3 |
| 81.3 | 71.4 | inactive | Obscn | 1 |
| 63.9 | 53.2 | inactive | Obscn | 2 |
| 85.6 | 101 | inactive | Obscn | 3 |
| 109 | 114 | inactive | Emx2 (empty spiracles homeobox 2) | 1 |
| 145 | 117 | active | Emx2 (empty spiracles homeobox 2) | 2 |
| 60 | 61.4 | inactive | Emx2 (empty spiracles homeobox 2) | 3 |
| 108 | 83.7 | inactive | Emx2 (empty spiracles homeobox 2) | 4 |
| 91.5 | 71.7 | inactive | Emx2 (empty spiracles homeobox 2) | 5 |
| 123 | 89.1 | active | Emx2 (empty spiracles homeobox 2) | 6 |
